# Data as given in the supplement of paper PMC12067093, “Discovery and optimisation of a covalent ligand for TRIM25 and its application to targeted protein ubiquitination” (Chemical Science, 2025).
# The list shows a part of the results.
# Compound: Cc1cc(ccc1-c1ccccc1)C(=O)N1CCCN(CC1)C(=O)CCl [compound 10]
# Assay: probe-labelled cysteine peptide fold change vs DMSO (competition) (log2 fold change); higher = less target engagement (more negative = stronger competition)
# Conditions: THP-1, incubation time: 4 h
# 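Note: competitive profiling in live THP-1 cells: cysteine peptides tagged with an iodoacetamide desthiobiotin (IA-DTB) probe, intensity after compound treatment relative to DMSO-treated cells.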
Target,probe-labelled cysteine peptide fold change (10 µM),probe-labelled cysteine peptide fold change (50 µM)
HLCS_P50747_375_EILTTLGLSCDMK (UniProt P50747),-0.0627,-0.0933
HEATR5B_Q9P2D3_518_TSPEAVSGYSFAMAALLGGVHQCPLGIPHAK (UniProt Q9P2D3),0.106,-0.115
HERC2_O95714_3016_VYACGEATNGR (UniProt O95714),0.109,0.336
HGH1_Q9BTY7_138_EPAPCAALMAALAAAEPADSGLER (UniProt Q9BTY7),0.0774,0.0728
HEATR5A_Q86XA9_1635_QIICAAQEHVK (UniProt Q86XA9),0.0658,0.171
HIF1AN_Q9NWT6_216+236_CILFPPDQFECLYPYPVHHPCDR (UniProt Q9NWT6),0.277,0.345
HEATR1_Q9H583_303_DGLSCLIVLLQR (UniProt Q9H583),-0.377,0.47
HDDC2_Q7Z4H3_82_LALVHDMAECIVGDIAPADNIPK (UniProt Q7Z4H3),0.167,-0.0308
HECTD1_Q9ULT8_254_MAAAGGTVSGPSSACKPGR (UniProt Q9ULT8),-0.115,-0.376
HEATR3_Q7Z4Q2_585_NIGCFLLEVTTK (UniProt Q7Z4Q2),-0.0817,-0.53
HDAC1_Q13547_284_CVEFVK (UniProt Q13547),-0.121,0.0174
HCK_P08631_482_MPRPENCPEELYNIMMR (UniProt P08631),0.0136,-0.146
HEXA_P06865_522_RGVQAQPLNVGFCEQEFEQT (UniProt P06865),-0.149,0.255
HDHD2_Q9H0R4_244_INPPPYLTCESFPHAVDHILQHLL (UniProt Q9H0R4),-0.0718,0.187
HDAC1_Q13547_12_VCYYYDGDVGNYYYGQGHPMK (UniProt Q13547),0.102,0.22
HDAC4_P56524_667_HQCTCGSSSSHPEHAGR (UniProt P56524),0.236,0.0223
HECTD1_Q9ULT8_1127_DNSALNCHSNDDK (UniProt Q9ULT8),-0.209,-0.0644
HIF1AN_Q9NWT6_236_CILFPPDQFECLYPYPVHHPCDR (UniProt Q9NWT6),0.0984,-0.0127
HMGB3_O15347_23_MSAYAFFVQTCR (UniProt O15347),0.0558,-0.351
HK1_P19367_813_AILQQLGLNSTCDDSILVK (UniProt P19367),0.0936,0.00861
HINT1_P49773_84_CAADLGLNK (UniProt P49773),-0.0612,0.0208
HLA-C_P04222_364_GGSCSQAASSNSAQGSDESLIACK (UniProt P04222),-0.0201,-0.474
